Measurements as given in article PMC2806833.
These are yes or no findings as the source states them, for the method shown. In cells and extracts the contact can be indirect. Some binding calls cover weakened binding; strength is not graded here.

The chains behind the UniProt entries cited, without tags or fusion partners. Residues count along the entry.
UniProt Q16512, residues 581-942: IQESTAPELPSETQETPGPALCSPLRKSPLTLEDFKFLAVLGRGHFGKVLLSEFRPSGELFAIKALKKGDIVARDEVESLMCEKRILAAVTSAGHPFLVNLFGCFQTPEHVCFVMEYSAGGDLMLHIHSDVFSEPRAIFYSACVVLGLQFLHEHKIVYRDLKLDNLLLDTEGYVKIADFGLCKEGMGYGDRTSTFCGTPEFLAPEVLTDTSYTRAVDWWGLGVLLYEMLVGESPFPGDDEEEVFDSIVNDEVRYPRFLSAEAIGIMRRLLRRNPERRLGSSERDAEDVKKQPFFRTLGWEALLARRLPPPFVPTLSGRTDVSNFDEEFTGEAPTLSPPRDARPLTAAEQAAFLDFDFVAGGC
UniProt Q28021, residues 6-553: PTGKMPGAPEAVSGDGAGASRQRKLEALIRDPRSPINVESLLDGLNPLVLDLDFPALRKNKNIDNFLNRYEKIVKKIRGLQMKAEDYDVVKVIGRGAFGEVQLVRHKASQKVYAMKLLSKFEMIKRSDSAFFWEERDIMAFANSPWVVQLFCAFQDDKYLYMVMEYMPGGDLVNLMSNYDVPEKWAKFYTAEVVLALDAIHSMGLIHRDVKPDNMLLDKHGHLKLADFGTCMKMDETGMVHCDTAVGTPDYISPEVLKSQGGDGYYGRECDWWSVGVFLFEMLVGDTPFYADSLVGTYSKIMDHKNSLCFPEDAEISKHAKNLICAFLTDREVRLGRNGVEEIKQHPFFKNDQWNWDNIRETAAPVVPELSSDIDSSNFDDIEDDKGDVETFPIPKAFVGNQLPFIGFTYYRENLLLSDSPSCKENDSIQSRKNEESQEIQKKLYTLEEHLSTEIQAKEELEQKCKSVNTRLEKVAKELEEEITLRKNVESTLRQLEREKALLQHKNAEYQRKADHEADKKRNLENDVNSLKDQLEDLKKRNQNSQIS

Columns and labels:
[1] = target: GST-PKN-cat (581-942 amino acids) (UniProt Q16512); assay: pull-down; same affinity columns (GST-fused kinase fragment on glutathione-sepharose, rat brain fraction loaded); 50 mM and 1 M NaCl eluates analysed by immunoblot with anti-CRMP-2, anti-AP180 and anti-DCX Abs; only the target purified
[2] = target: GST-Rho-kinase-cat (active catalytic fragment of Rho-kinase/ROCK/ROK, 6-553 amino acids) (UniProt Q28021); assay: as above
[3] = target: GST-Rho-kinase-cat (active catalytic fragment of Rho-kinase/ROCK/ROK, 6-553 amino acids) (UniProt Q28021); assay: pull-down; Rho-kinase-cat affinity column in the presence of ATP; data not shown; only the target purified

binding [1] | binding [2] | binding [3] | Binder
binds | binds |  | Doublecortin (DCX) (protein, UniProt Q9ESI7 1-365) MELDFGHFDERDKASRNMRGSRMNGLPSPTHSAHCSFYRTRTLQALSNEKKAKKVRFYRNGDRYFKGIVYAVSSDRFRSFDALLADLTRSLSDNINLLQGVRYIYTIDGSRKIGSMDELEEGESYVCSSDNFFKKVEYTKNVNPNWSVNVKTSANMKAPQSLASSNSAQARENKDFVRPKLVTIIRSGVKPRKAVRVLLNKKTAHSFEQVLTDITEAIKLETGVVKKLYTLDGKQVTCLHDFFGDDDVFIACGPEKFRYAQDDFSLDENECRVMKGNPSATAGPKASPTPQKTSAKSPGPMRRSKSPADSGNDQDANGTSSSQLSTPKSKQSPISTPTSPGSLRKHKDLYLPLSLDDSDSLGDSM
binds weakly | binds | binds | AP180 (protein, UniProt Q05140 1-915) MSGQTLTDRIAAAQYSVTGSAVARAVCKATTHEVMGPKKKHLDYLIQATNETNVNIPQMADTLFERATNSSWVVVFKALVTTHHLMVHGNERFIQYLASRNTLFNLSNFLDKSGSHGYDMSTFIRRYSRYLNEKAFSYRQMAFDFARVKKGADGVMRTMVPEKLLKSMPILQGQIDALLEFDVHPNELTNGVINAAFMLLFKDLIKLFACYNDGVINLLEKFFEMKKGQCKDALEIYKRFLTRMTRVSEFLKVADEVGIDKGDIPDLTQAPSSLMETLEQHLNTLEGKKPGNNEGSGAPSPLSKSSPATTVTSPNSTPAKTIDTSPPVDIFATASAAAPVSSAKPSSDLLDLQPDFSGARAGAAAPVPPPTGGATAWGDLLGEDSLAALSSVPSEAPISDPFAPEPSPPTTTTEPASASASATTAVTAATTEVDLFGDAFAASPGEAPAASEGATAPATPAPVAAALDACSGNDPFAPSEGSAEAAPELDLFAMKPPETSAPVVTPTASTAPPVPATAPSPAPTAVAATAATTTAAAAATTTATTSAAAATTAAAPPALDIFGDLFDSAPEVAAASKPDVAPSIDLFGTDAFSSPPRGASPVPESSLTADLLSGSGFHCAEDDRHVPLFFTAVDAFAAPSPASTASPAKAESSGVIDLFGDAFGSSASETQPAPQAVSSSSASADLLAGFGGSFMAPSTTPVTPAQNNLLQPNFEAAFGTTPSTSSSSSFDPSGDLLMPTMAPSGQPAPVSMVPPSPAMSASKGLGSDLDSSLASLVGNLGISGTTSKKGDLQWNAGEKKLTGGANWQPKVTPATWSAGVPPQGTVPPTSSVPPGAGAPSVGQPGAGYGMPPAGTGMTMMPQQPVMFAQPMMRPPFGAAAVPGTQLSPSPTPATQSPKKPPAKDPLADLNIKDFL
